B1: Nop2 (protein, UniProt P40991 1-618)
chain: MGSRRHKNKQAAPPTLEEFQARKEKKANRKLEKGKRPSTTQGDEVSDRKKKKSKPFKKSRKEEEEVVEEDKDLPEVDLEELSKARKSLFDDEEDDDEAGLVDEELKDEFDLEQEYDYDEDEDNDAHPIFSDDDDEADLEELNAQNMEALSKKLDEEEAEEAEEAEMELVEAENMQPRADILPTEEQEEMMAQETPNLTSTRTRMIEIVKVLENFKTLGAEGRSRGEYVDRLLKDICEYFGYTPFLAEKLFNLFSPAEAMEFFEANEIARPITIRTNTLKTRRRDLAQTLVNRGVNLQPIGSWTKVGLQIFDSQVPIGATPEYLAGHYILQAASSFLPVIALDPHENERILDMAAAPGGKTTYISAMMKNTGCVFANDANKSRTKSLIANIHRLGCTNTIVCNYDAREFPKVIGGFDRILLDAPCSGTGVIGKDQSVKVSRTEKDFIQIPHLQKQLLLSAIDSVDCNSKHGGVIVYSTCSVAVEEDEAVIDYALRKRPNVKLVDTGLAIGKEAFTSYRGKKFHPSVKLARRYYPHTYNVDGFFVAKFQKIGPSSFDDNQASAKEKETAARKEALEEGIIHSDFATFEDEEDDKYIEKSVKNNLLKKGVNPKAKRPSNEK
B2: Mss116 (protein, UniProt P15424 27-664)
chain: NHITWAVSRRLYNDGNRDQRNFGRNQRNNNSNRYRNSRFNSRPRTRSREDDDEVHFDKTTFSKLIHVPKEDNSKEVTLDSLLEEGVLDKEIHKAITRMEFPGLTPVQQKTIKPILSSEDHDVIARAKTGTGKTFAFLIPIFQHLINTKFDSQYMVKAVIVAPTRDLALQIEAEVKKIHDMNYGLKKYACVSLVGGTDFRAAMNKMNKLRPNIVIATPGRLIDVLEKYSNKFFRFVDYKVLDEADRLLEIGFRDDLETISGILNEKNSKSADNIKTLLFSATLDDKVQKLANNIMNKKECLFLDTVDKNEPEAHERIDQSVVISEKFANSIFAAVEHIKKQIKERDSNYKAIIFAPTVKFTSFLCSILKNEFKKDLPILEFHGKITQNKRTSLVKRFKKDESGILVCTDVGARGMDFPNVHEVLQIGVPSELANYIHRIGRTARSGKEGSSVLFICKDELPFVRELEDAKNIVIAKQEKYEPSEEIKSEVLEAVTEEPEDISDIVISLISSYRSCIKEYRFSERRILPEIASTYGVLLNDPQLKIPVSRRFLDKLGLSRSPIGKAMFEIRDYSSRDGNNKSYDYDDDSEISFRGNKNYNNRSQNRDYDDEPFRRSNNNRRSFSRSNDKNNYSSRNSNIY
B3: Lsm8 (protein, UniProt P47093 1-109)
chain: MSATLKDYLNKRVVIIKVDGECLIASLNGFDKNTNLFITNVFNRISKEFICKAQLLRGSEIALVGLIDAENDDSLAPIDEKKVPMLKDTKNKIENEHVIWEKVYESKTK
B4: Ask10 (protein, UniProt P48361 1-1146)
chain: MSDYFSSRPSQTLTPMGNKPSGGGGGDDASSIHSKSSQYLMDILPDSMTLNESVSSIVANNQAKEFILPETDERSPYFINVPIPKAQPTSTTETKKPLAGDEAIDGQFVKEYPTDILVDRFYKWKKILKGLVIYLREVAYAQEQFARINYQLKGSVKFPFLTDIDETTNTITDPFTTAPRGPKKAQPAQKKVGLTDSEQFQMQMQQEQQENAVQAPTDESKMSLAPHEYKPVQTTESDNTSAASGFVKFGSGSIQDIQVILKKYHLSLANQQFKISKEITSTVIPKLEELRKDLRYKITEIKDLHGDFKTNIGAHIQLTSQLLKKYIAAVKFMNAHGIGNDRASPTNKKPHKLDPKHDPYLLKLQLDLQLKRQVAEETYLQEAFINLQSSGLQLEKIIYTKIQHALLRYSALIDSEARLMIKNMCQELQHGIISKPPAFEWDNFVTQHPSCLLNWKSNDPIPPPRKVSDVIYPHMKSPLAKCIKAGYFLKKSELLPTYHQGYFVLTSNYIHEFQSSDFYNLSSSTPNSTKSSAYSSSVSIADTYANANNAKANNHHRQASDVHNSSTTTGGTAGANGIRGIRKKSYLAPIMSIPLNDCTLKDASSTKFVLVGKPTLNENADVRKSSSSTYLSGSSQASLPKYGHETAKIFSKAPFHKFLKGSKPKNKNTKSSELDQFYAAAQKESNNYVTWTFKIVSPEPSEEELKHFKRWVQDLKNLTSFNDTKDRIKFIEDRVMKSHRFKAGHMSRNSVNIGSHTPCLTDSTFTLQDGTTTSVNLKGRAEKPQYIHIQNNSLADFDGNGFRSKVNTPAIDDYGNLITVERRPAQSPHQYSDYMATSGNTTPSYSSGSRPQSMYNGYNPAVSITSNGMMLQQSTANNNTNPTTNLRHQRNISQTSSLPGFSYTSLSLPVNSPGSSNSESSSGGYFAIPLHGNNNNNNYTQRNSEGSSPCYNDDQIRQQQQPLQMQPLSRTSSSSVNVTAMRSTSAGNSITANAPVVPKVMVNNQNVKTVAADQSATAPSSPTMNSSVTTINRESPYQTLKKTNSTGNVPCLTAEKTHAHPAFYKRGNNSAQNLTTSSSTASRVHPIRKHKKNVSFSSLNSLMFSKKGANHGGNLMTNQFMSGGIQEDDGDSTNNDTIKLNQSIYS
B5: Pet130 (protein, UniProt P47065 1-347)
chain: MKIFSTLLSQKPKGKLVIRPSTTIHSSDPFSKFIVTKNTEPLSLGDLRKSDSGNSAVCLNAENTILSTLTDLQKEEERNWDPVKFVAGKLRGVISPIQAYVTIGKKFSPNSLVYTSRFFQLHYFPEDHFMSCFRKSKPAITVKSNKKFYLNGKVFNKDKEYFNETRISKANEVELSKIQTAMTRLTNRHRNSIPSEFAYLRRDLKLKVKTTFIKEWCKLNGDKAIREYVNLNRSPNINPASMKGKPKKSFLDNLGRSTVGTAKDGYYLYIVSIFPDKDMLGEFNDEVNRSVQKVANLDWDGFLTPKKGTKGKNWVESFNDSINVQTINKILEINKFPFELRREQTEG
B6: Rrg1 (protein, UniProt Q12167 1-365)
chain: MAQNFGKIPSHKSYVLSLYRTVLRNIPKCCHSYAFQYEIKKTLSIQLFKHKHDKSSWSVYTLLNEFSLLNNCLLEGKLQEIKNLMKPLKKMKKQLKTTKILNSLTSLGDVKTNDPEEVRRFHVLSAYIKRKQDLGLLPAYIPKTYQHKLLLPLALNEHACLKLFHIQQKLKNGPPSAGLSYTKEGRNQIWFVRSPINKGRQQSKKLGILIRKERKDSQKNIDNLNFCEINAAWALHEAIWEEYLESKKIIKVNLPKYLEYAANIPKSTKCNPSSQYQKVKEWVDPVREIMFELHSKSFQRVEYFNKYKEKLLKNGGQLAYFDKKSKEMYAKRLTLFRKMSKETLPYVTLFIEGRDLPSVLAKYGF
B7: Rpc40 (protein, UniProt P07703 1-335)
chain: MSNIVGIEYNRVTNTTSTDFPGFSKDAENEWNVEKFKKDFEVNISSLDAREANFDLINIDTSIANAFRRIMISEVPSVAAEYVYFFNNTSVIQDEVLAHRIGLVPLKVDPDMLTWVDSNLPDDEKFTDENTIVLSLNVKCTRNPDAPKGSTDPKELYNNAHVYARDLKFEPQGRQSTTFADCPVVPADPDILLAKLRPGQEISLKAHCILGIGGDHAKFSPVSTASYRLLPQINILQPIKGESARRFQKCFPPGVIGIDEGSDEAYVKDARKDTVSREVLRYEEFADKVKLGRVRNHFIFNVESAGAMTPEEIFFKSVRILKNKAEYLKNCPITQ

Binding data for seven molecules are collected here from publication PMC4632068.

These are yes or no findings as the source states them, for the method shown. Binding seen in cells or lysates may run through a third protein. Here binding means that the protein was enriched with, or labelled near, the bait; the list need not be complete. A no says only that the protein was not detected with the bait. Sequences can lack the tags named with a protein.

The target of this experiment is T1, Dhh1−GFP (S. cerevisiae (endogenous in BY4741-derived yeast)) (UniProt P39517).
T1 sequence: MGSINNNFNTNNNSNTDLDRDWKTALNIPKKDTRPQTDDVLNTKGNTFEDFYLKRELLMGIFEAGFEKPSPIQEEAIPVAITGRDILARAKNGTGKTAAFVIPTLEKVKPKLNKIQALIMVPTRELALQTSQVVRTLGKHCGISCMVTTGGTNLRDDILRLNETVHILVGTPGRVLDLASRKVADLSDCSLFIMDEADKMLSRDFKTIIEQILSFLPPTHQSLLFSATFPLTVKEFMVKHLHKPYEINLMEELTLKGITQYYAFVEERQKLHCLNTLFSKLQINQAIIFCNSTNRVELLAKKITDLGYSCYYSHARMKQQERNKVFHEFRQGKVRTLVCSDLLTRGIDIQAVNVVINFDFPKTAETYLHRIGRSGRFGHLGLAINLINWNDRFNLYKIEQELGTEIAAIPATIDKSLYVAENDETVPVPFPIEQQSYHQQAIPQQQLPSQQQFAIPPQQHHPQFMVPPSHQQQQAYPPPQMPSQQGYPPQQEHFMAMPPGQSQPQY
The experiment is described as follows: affinity purification with mass spectrometry; Dhh1−GFP captured by anti-GFP IgG cross-linked to Protein-G Dynabeads from cleared lysate of cryo-ground yeast; RB buffer (30 mM K-Hepes pH 7.4, 150 mM KCl, 2 mM MgCl2, 0.2% NP-40, 0.1% Tween-20, 1 mM DTT, RNase inhibitor), 30 min at 4°; five purifications (two +glucose YPD, three 30 min −glucose YEP); hits filtered by SAINT against CRAPome controls.
Turning to B1, the binding result is “binds”. Next, B2: “binds”. Next, B3: “no binding”. Next, B4: “binds”. For the molecule B5, the binding result is “binds”. With B6 the entry was “binds”; with B7, “binds”.
